Where a name gives a salt, the structure may show the parent alone. Some of the results follow. Hit calls seldom repeat between salt and free forms of one compound.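 Kinases were expressed as nanoluciferase fusions in K562 cells and luminescence was read every 4 h between 2 and 18 h as percent of control, DMSO set to 100% and a positive control to 0%. A time point counts as decreased when the signal drops significantly (2 sigma). The hit call is the authors' own, does not follow from the count of time points alone, and its rule is not shown.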
Legend:
Test in all cases: number of time points (of 5) at which kinase-Nluc abundance scored as decreased, DMSO-normalised (count); higher = more persistent destabilization
Conditions in all cases: K562; 2-18 h
[1] = target: CAMK2A (UniProt Q9UQM7)
[2] = target: CAMK2G (UniProt Q13555)
[3] = target: CDK10 (UniProt Q15131)
[4] = target: CDK2 (UniProt P24941)
[5] = target: CDK3 (UniProt Q00526)
[6] = target: CDK5 (UniProt Q00535)
[7] = target: CDK6 (UniProt Q00534)
[8] = target: CHEK2 (UniProt O96017)
[9] = target: CSF1R (UniProt P07333)
[10] = target: CSK (UniProt P41240)
[11] = target: CSNK1A1 (UniProt P48729)
[12] = target: CSNK1D (UniProt P48730)
[13] = target: DDR1 (UniProt Q08345)
[14] = target: DYRK1B (UniProt Q9Y463)
[15] = target: DYRK2 (UniProt Q92630)
[16] = target: EGFR (UniProt P00533)
[17] = target: EGFR_G719S (UniProt P00533)
[18] = target: EGFR_G719S_T790M (UniProt P00533)
[19] = target: EGFR_L718V (UniProt P00533)
[20] = target: EGFR_L858R (UniProt P00533)

Protein sequences, listed by entry. Tags and fused reporters are not part of them. Lines headed by an entry give the natural chain unless they say otherwise; changes in a name come on top.
UniProt Q9UQM7, whole entry: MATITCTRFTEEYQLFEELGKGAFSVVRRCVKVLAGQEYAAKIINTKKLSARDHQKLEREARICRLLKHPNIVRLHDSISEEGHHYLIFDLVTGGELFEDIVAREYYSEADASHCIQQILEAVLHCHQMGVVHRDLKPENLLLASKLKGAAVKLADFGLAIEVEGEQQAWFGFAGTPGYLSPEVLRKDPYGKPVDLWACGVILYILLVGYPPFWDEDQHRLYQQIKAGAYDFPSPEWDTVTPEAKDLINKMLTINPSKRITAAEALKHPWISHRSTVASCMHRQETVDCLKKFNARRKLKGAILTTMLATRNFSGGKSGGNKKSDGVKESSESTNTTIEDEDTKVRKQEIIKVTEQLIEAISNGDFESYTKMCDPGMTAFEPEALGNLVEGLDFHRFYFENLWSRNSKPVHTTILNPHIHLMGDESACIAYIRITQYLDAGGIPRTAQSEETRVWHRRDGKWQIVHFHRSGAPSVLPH
UniProt Q13555: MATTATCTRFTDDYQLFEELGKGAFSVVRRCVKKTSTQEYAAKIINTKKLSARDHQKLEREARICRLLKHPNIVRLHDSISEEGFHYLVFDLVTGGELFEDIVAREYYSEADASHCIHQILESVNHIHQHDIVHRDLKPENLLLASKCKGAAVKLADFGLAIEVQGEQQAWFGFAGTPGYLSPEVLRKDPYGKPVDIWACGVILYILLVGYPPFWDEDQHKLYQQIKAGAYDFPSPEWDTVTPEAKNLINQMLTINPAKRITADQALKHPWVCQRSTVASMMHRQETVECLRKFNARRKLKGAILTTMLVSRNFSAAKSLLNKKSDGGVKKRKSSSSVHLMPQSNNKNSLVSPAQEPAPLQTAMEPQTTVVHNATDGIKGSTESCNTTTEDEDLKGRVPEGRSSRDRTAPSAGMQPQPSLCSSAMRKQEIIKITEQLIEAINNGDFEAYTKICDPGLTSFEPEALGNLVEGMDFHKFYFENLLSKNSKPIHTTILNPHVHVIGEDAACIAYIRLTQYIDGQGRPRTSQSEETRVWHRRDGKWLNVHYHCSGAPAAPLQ
UniProt Q15131: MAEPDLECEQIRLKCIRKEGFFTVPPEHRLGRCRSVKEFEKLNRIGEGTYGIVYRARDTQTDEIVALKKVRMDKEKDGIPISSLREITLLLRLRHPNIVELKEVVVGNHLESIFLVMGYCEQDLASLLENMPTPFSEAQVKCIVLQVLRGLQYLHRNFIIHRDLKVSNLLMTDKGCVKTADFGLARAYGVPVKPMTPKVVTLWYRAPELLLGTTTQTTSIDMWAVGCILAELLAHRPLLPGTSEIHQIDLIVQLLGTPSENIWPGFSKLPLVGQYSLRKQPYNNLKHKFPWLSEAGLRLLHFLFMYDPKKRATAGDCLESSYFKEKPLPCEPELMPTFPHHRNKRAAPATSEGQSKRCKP
UniProt Q00526: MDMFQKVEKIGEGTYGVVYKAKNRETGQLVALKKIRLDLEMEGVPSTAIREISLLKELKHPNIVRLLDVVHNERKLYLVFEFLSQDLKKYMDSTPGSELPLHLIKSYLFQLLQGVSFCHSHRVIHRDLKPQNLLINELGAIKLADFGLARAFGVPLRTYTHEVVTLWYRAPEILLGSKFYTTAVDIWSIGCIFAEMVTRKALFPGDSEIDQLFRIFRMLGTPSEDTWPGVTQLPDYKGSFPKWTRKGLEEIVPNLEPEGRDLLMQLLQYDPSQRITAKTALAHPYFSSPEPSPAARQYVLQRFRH
UniProt Q00535, whole entry, looked up: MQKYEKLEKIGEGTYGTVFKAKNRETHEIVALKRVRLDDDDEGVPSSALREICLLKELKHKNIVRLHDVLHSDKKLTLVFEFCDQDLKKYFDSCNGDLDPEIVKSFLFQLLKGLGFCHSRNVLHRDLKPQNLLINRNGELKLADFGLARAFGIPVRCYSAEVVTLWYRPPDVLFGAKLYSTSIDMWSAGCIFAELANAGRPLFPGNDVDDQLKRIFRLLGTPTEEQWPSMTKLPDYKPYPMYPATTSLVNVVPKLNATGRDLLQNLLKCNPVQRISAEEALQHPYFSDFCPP
UniProt Q00534, whole entry: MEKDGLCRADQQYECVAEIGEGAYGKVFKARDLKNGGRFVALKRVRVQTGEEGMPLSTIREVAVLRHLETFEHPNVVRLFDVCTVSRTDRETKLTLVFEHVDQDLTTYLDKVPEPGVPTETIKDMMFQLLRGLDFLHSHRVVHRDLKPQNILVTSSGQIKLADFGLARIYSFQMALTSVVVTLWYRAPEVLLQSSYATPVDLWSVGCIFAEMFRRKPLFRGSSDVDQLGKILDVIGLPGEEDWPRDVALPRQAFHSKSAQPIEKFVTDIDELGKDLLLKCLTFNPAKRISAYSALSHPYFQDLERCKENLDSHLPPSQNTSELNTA
UniProt O96017, whole entry: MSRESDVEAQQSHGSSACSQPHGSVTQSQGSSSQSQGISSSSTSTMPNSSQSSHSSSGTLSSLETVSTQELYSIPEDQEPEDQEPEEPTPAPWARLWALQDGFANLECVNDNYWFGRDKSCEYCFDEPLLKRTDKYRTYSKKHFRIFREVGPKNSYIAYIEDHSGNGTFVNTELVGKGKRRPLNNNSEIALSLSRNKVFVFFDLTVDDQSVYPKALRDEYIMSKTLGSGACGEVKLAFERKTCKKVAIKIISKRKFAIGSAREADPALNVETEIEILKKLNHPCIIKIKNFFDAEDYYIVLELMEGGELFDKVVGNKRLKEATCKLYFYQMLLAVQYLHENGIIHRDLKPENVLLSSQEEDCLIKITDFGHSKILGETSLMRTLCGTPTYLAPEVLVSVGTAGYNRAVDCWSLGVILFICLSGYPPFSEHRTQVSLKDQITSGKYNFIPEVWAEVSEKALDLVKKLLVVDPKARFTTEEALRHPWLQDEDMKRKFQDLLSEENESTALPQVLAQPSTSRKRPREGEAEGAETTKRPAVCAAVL
UniProt P41240: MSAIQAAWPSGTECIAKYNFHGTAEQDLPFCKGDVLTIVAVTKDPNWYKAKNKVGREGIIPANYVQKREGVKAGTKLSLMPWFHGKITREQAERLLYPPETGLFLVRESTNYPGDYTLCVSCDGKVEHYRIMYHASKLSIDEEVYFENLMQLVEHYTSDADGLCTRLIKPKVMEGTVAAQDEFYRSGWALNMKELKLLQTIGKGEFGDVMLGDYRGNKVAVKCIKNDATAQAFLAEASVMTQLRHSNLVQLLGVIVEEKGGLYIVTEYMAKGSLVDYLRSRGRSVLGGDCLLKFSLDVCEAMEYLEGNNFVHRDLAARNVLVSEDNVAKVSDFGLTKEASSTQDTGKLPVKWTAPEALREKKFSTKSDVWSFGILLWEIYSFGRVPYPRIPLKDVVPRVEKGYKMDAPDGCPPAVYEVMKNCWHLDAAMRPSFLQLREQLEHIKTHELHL
UniProt P48729: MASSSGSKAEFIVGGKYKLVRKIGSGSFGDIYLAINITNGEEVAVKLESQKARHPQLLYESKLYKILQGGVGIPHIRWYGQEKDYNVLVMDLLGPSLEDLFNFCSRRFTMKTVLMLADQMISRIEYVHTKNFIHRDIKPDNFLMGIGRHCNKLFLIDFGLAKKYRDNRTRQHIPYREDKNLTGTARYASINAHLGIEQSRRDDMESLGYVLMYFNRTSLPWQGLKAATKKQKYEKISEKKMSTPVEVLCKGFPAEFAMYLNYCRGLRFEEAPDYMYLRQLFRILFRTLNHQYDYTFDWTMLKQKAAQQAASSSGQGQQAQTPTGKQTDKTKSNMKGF
UniProt P48730: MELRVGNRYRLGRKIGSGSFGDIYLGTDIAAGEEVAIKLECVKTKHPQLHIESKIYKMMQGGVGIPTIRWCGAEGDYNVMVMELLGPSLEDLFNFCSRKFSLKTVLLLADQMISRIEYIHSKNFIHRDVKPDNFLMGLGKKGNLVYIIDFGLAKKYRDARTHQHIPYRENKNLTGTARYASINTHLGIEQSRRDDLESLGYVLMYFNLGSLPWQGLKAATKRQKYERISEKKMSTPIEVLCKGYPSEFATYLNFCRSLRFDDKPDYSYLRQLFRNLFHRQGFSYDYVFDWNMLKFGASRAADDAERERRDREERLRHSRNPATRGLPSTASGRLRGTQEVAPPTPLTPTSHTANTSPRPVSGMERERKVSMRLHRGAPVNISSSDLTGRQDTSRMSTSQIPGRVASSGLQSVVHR
UniProt Q08345: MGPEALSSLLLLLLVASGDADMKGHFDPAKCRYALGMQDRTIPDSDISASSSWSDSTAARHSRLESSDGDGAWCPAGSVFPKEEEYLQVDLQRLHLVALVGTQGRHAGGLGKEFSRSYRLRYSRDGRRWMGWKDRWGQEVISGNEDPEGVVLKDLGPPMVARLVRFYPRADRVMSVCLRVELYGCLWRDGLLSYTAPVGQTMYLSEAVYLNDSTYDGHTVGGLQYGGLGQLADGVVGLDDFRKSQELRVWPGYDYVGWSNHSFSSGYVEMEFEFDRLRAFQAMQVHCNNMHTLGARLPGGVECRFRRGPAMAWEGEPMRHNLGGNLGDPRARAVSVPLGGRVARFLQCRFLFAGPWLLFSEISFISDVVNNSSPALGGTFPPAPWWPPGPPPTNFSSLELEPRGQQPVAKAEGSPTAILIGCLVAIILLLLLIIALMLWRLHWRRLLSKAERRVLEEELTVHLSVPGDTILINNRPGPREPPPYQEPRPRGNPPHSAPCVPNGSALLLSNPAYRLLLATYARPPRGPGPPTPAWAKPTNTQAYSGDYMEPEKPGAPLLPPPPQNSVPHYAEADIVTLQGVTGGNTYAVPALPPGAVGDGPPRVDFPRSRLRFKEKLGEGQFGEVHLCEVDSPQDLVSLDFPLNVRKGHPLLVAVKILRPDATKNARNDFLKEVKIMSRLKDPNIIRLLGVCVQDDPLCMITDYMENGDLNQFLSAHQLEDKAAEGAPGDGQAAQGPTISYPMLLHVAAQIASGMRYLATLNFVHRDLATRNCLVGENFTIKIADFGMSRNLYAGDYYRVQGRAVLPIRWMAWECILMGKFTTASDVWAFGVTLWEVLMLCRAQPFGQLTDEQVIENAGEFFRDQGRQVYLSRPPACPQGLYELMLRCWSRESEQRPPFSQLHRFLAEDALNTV
UniProt Q9Y463, whole entry, looked up: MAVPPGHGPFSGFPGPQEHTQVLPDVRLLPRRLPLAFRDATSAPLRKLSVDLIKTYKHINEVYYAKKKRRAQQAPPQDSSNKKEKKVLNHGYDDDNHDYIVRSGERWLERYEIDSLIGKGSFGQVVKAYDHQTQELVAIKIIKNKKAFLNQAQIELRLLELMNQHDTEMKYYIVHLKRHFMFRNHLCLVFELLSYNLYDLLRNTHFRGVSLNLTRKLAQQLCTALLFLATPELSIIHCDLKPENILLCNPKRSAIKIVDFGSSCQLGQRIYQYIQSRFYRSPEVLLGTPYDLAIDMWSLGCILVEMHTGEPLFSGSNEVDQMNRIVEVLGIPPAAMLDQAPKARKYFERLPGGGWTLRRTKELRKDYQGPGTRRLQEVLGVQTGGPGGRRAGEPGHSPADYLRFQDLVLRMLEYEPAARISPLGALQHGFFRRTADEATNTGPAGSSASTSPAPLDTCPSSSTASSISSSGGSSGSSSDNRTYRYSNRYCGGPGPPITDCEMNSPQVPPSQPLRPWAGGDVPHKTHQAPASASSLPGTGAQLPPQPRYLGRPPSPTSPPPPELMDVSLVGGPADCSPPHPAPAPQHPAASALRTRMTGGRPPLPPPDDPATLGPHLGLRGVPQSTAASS
UniProt Q92630: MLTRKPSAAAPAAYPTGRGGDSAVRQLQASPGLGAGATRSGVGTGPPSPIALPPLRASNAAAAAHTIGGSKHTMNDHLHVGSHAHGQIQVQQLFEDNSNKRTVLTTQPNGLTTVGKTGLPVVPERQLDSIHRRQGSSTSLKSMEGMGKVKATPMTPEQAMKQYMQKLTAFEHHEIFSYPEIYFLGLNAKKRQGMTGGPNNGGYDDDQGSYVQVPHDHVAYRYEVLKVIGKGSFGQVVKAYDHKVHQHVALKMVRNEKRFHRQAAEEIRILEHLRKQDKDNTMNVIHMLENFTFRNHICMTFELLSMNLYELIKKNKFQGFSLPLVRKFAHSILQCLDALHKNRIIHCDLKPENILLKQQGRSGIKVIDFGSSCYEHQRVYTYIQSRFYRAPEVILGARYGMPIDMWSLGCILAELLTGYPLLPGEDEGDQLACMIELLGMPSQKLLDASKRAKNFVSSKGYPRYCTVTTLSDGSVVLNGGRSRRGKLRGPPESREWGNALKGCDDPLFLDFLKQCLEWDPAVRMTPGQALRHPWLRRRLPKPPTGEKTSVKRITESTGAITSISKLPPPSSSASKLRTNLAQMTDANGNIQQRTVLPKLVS

Row | SMILES | number of time points [1] | number of time points [2] | number of time points [3] | number of time points [4] | number of time points [5] | number of time points [6] | number of time points [7] | number of time points [8] | number of time points [9] | number of time points [10] | number of time points [11] | number of time points [12] | number of time points [13] | number of time points [14] | number of time points [15] | number of time points [16] | number of time points [17] | number of time points [18] | number of time points [19] | number of time points [20]
1 | C[C@H]1CNC(=O)c2cnn3ccc(nc23)N[C@H](C)c2cc(F)ccc2O1 [Repotrectinib] (2.5 µM) | 0 | 0 | 1 | 0 | 0 | 0 | 0 | 2 | 0 | 0 | 0 | 1 | 1 | 0 | 3 | 1 | 1 | 1 | 0 | 0
2 | CNS(=O)(=O)Nc1nccc(Cc2c(C)c3ccc(Oc4ncccn4)cc3oc2=O)c1F (10 µM) | 0 | 0 | 0 | 0 | 0 | 0 | 0 | 1 | 1 | 0 | 0 | 1 | 1 | 0 | 2 | 0 | 1 | 1 | 1 | 2
3 | CCCCNc1ncc2c(-c3ccc(CN4CCN(C)CC4)cc3)cn([C@H]3CC[C@H](O)CC3)c2n1 [UNC2025 (hydrochloride)] (2.5 µM) | 0 | 0 | 0 | 0 | 0 | 0 | 0 | 0 | 0 | 0 | 0 | 0 | 4 | 0 | 4 | 0 | 0 | 0 | 0 | 0
4 | CCn1c2ccccc2c2cc(Nc3ccnc(NCCCN4CCOCC4)n3)ccc21 (2.5 µM) | 0 | 0 | 0 | 0 | 0 | 0 | 0 | 0 | 0 | 0 | 0 | 0 | 0 | 0 | 0 | 0 | 0 | 0 | 0 | 0
5 | CC[C@H](C)[C@H](NC(=O)[C@H](CCCCN)NC(=O)[C@H](CC(C)C)NC(=O)[C@@H]1CCCN1C(=O)[C@H](CCC(=O)O)NC(=O)[C@H](Cc1ccc(O)cc1)NC(=O)[C@@H](NC(=O)[C@H](CO)NC(=O)CNC(=O)[C@H](CO)NC(=O)[C@H](CCCN=C(N)N)NC(=O)[C@H](CCCCN)NC(=O)[C@@H](NC(=O)[C@@H](N)CCCN=C(N)N)[C@@H](C)O)C(C)C)C(=O)O [Malantide] (10 µM) | 0 | 0 | 0 | 0 | 0 | 0 | 0 | 0 | 0 | 0 | 0 | 0 | 0 | 0 | 0 | 0 | 0 | 0 | 0 | 0
6 | O=C(Nc1ncc(SCCN2CCCC2)s1)[C@]1(c2ccc(S(=O)(=O)C3CC3)cc2)C[C@H]1C1CCCCC1 [Globalagliatin] (2.5 µM) | 0 | 0 | 0 | 0 | 0 | 0 | 0 | 0 | 0 | 0 | 0 | 0 | 0 | 0 | 0 | 0 | 0 | 0 | 0 | 0
7 | COc1ccc2c(c1)C[C@H](C(=O)Nc1ccc(-c3cn[nH]c3)cc1OCCN(C)C)CO2 [Chroman 1] (10 µM) | 0 | 0 | 0 | 0 | 0 | 0 | 0 | 0 | 0 | 0 | 0 | 0 | 0 | 0 | 0 | 0 | 0 | 0 | 0 | 0
8 | CCOc1cc(C(=O)N2CCC(N3CCN(C)CC3)CC2)ccc1Nc1ncc2c(n1)N(S(C)(=O)=O)c1ccccc1C(=O)N2C (10 µM) | 0 | 0 | 0 | 0 | 0 | 0 | 0 | 0 | 0 | 0 | 0 | 0 | 0 | 0 | 0 | 0 | 0 | 0 | 0 | 0
9 | CN(C/C=C/C(=O)Nc1ccc(C(=O)Nc2cccc(Nc3ncc(Cl)c(-c4c[nH]c5ccccc45)n3)c2)cc1)CCCNC(=O)NCCOCCOCCOCCNC(=O)CCCC[C@@H]1SC[C@@H]2NC(=O)N[C@@H]21 (2.5 µM) | 0 | 0 | 0 | 0 | 0 | 2 | 0 | 0 | 2 | 0 | 0 | 0 | 0 | 0 | 0 | 1 | 2 | 1 | 1 | 2
10 | O=C(Nc1nccs1)C(c1cc(F)ccc1O)N1Cc2ccc(-c3ccc(N4CCNCC4)cc3)cc2C1=O (racemic) (10 µM) | 0 | 0 | 0 | 0 | 0 | 0 | 0 | 0 | 1 | 0 | 0 | 0 | 1 | 0 | 0 | 0 | 0 | 0 | 0 | 0
11 | O=C(O)/C=C/c1cc(Br)c(Br)c(Br)c1Br (10 µM) | 0 | 0 | 0 | 0 | 0 | 0 | 0 | 0 | 0 | 0 | 0 | 0 | 0 | 0 | 0 | 0 | 0 | 0 | 0 | 0
12 | O=C1c2cccc(O)c2C(=O)c2c(O)cccc21 [Danthron] (10 µM) | 0 | 0 | 0 | 0 | 0 | 0 | 0 | 0 | 0 | 0 | 0 | 0 | 0 | 0 | 0 | 0 | 0 | 0 | 0 | 0
13 | O=C(Nc1cc(Cl)cc(Cl)c1)Nc1cc(Cl)cc(Cl)c1 (10 µM) | 0 | 0 | 0 | 0 | 0 | 0 | 0 | 0 | 0 | 0 | 0 | 0 | 0 | 0 | 3 | 0 | 0 | 0 | 0 | 0
14 | O=C(O)[C@]1(Cc2cccc(Nc3nccs3)n2)CC[C@@H](Oc2cccc(Cl)c2F)CC1 (2.5 µM) | 0 | 2 | 0 | 0 | 0 | 0 | 0 | 1 | 1 | 0 | 0 | 1 | 1 | 1 | 3 | 0 | 0 | 1 | 1 | 1
15 | Cc1ccc(CNC(=O)N2CCC[C@]3(CCN(Cc4ccc(Cl)c(Cl)c4)C3)C2)cc1 (10 µM) | 0 | 0 | 0 | 0 | 0 | 0 | 0 | 0 | 0 | 0 | 0 | 0 | 0 | 0 | 0 | 0 | 0 | 0 | 0 | 0
16 | C[C@H](Nc1ccc2c(c1)OCCn1cc(N3C(=O)OC[C@H]3C(F)F)nc1-2)C(N)=O (10 µM) | 0 | 0 | 0 | 0 | 0 | 0 | 0 | 0 | 0 | 0 | 0 | 0 | 0 | 0 | 4 | 0 | 0 | 0 | 0 | 0
17 | CC(C)[C@H](CO)Nc1nc(Nc2ccc(C(=O)O)c(Cl)c2)c2ncn(C(C)C)c2n1 [Purvalanol B] (10 µM) | 0 | 0 | 0 | 0 | 0 | 0 | 0 | 0 | 0 | 0 | 0 | 0 | 0 | 0 | 0 | 0 | 0 | 0 | 0 | 0
18 | CC(C)Cn1cc(C#N)c2cc(Oc3ccc(NC(=O)[C@@H]4CCCN4)cc3)ccc21 (10 µM) | 0 | 0 | 0 | 0 | 0 | 0 | 0 | 0 | 0 | 0 | 0 | 0 | 0 | 0 | 0 | 0 | 0 | 0 | 0 | 0
19 | COc1ccc(F)cc1C(=O)NCc1ccc(-c2nn([C@@H](C)C(F)(F)F)c(N)c2C(N)=O)cc1 [Pirtobrutinib] (10 µM) | 0 | 0 | 0 | 0 | 0 | 0 | 0 | 0 | 0 | 0 | 0 | 0 | 0 | 0 | 0 | 0 | 0 | 0 | 0 | 0
20 | CCn1c(-c2nonc2N)nc2c(C#CCO)ncc(OCCCN)c21 [AKT Kinase Inhibitor] (10 µM) | 0 | 0 | 0 | 0 | 0 | 0 | 0 | 0 | 0 | 0 | 0 | 0 | 0 | 0 | 0 | 0 | 0 | 0 | 0 | 0
21 | C=CC(=O)N[C@H]1CCOC[C@H]1Nc1ncc2cc(-c3c(Cl)c(OC)cc(OC)c3Cl)ccc2n1 [Fisogatinib] (10 µM) | 0 | 0 | 0 | 0 | 0 | 0 | 0 | 0 | 0 | 0 | 0 | 0 | 0 | 0 | 0 | 0 | 0 | 0 | 0 | 0
22 | CC(=O)c1cc(O)ccc1O [2,5-Dihydroxyacetophenone] (10 µM) | 0 | 0 | 0 | 0 | 0 | 0 | 0 | 0 | 0 | 0 | 0 | 0 | 0 | 0 | 0 | 0 | 0 | 0 | 0 | 0
23 | C=CC(=O)N1CCC[C@@H](n2c(=O)n(-c3ccc(Oc4ccccc4)cc3)c3c(N)nccc32)C1 [Tolebrutinib] (10 µM) | 0 | 0 | 0 | 0 | 0 | 0 | 0 | 0 | 0 | 0 | 0 | 0 | 0 | 0 | 0 | 0 | 0 | 0 | 0 | 0
24 | C[C@@H]1CC[C@]2(C(=O)O)CC[C@]3(C)C(=CC[C@@H]4[C@@]5(C)CC[C@H](O)[C@@](C)(CO)[C@@H]5CC[C@]43C)[C@@H]2[C@]1(C)O [Rotundic acid] (10 µM) | 0 | 0 | 0 | 0 | 0 | 0 | 0 | 0 | 0 | 0 | 0 | 0 | 0 | 0 | 0 | 0 | 0 | 0 | 0 | 0

Ordered by heavy-atom count (falling): part of the list above.
Row | SMILES | number of time points [1] | number of time points [2] | number of time points [3] | number of time points [4] | number of time points [5] | number of time points [6] | number of time points [7] | number of time points [8] | number of time points [9] | number of time points [10] | number of time points [11] | number of time points [12] | number of time points [13] | number of time points [14] | number of time points [15] | number of time points [16] | number of time points [17] | number of time points [18] | number of time points [19] | number of time points [20]
9 | CN(C/C=C/C(=O)Nc1ccc(C(=O)Nc2cccc(Nc3ncc(Cl)c(-c4c[nH]c5ccccc45)n3)c2)cc1)CCCNC(=O)NCCOCCOCCOCCNC(=O)CCCC[C@@H]1SC[C@@H]2NC(=O)N[C@@H]21 (2.5 µM) | 0 | 0 | 0 | 0 | 0 | 2 | 0 | 0 | 2 | 0 | 0 | 0 | 0 | 0 | 0 | 1 | 2 | 1 | 1 | 2
2 | CNS(=O)(=O)Nc1nccc(Cc2c(C)c3ccc(Oc4ncccn4)cc3oc2=O)c1F (10 µM) | 0 | 0 | 0 | 0 | 0 | 0 | 0 | 1 | 1 | 0 | 0 | 1 | 1 | 0 | 2 | 0 | 1 | 1 | 1 | 2
4 | CCn1c2ccccc2c2cc(Nc3ccnc(NCCCN4CCOCC4)n3)ccc21 (2.5 µM) | 0 | 0 | 0 | 0 | 0 | 0 | 0 | 0 | 0 | 0 | 0 | 0 | 0 | 0 | 0 | 0 | 0 | 0 | 0 | 0

Source: the supplement of paper PMC12823440, “Inhibitors supercharge kinase turnover through native proteolytic circuits” (Nature, 2025)
